## Primary screen of a compound library

Protein sequences, listed by entry. Tags and fused reporters are not part of them. Residues count along the entry.
UniProt P9WFT3, whole entry: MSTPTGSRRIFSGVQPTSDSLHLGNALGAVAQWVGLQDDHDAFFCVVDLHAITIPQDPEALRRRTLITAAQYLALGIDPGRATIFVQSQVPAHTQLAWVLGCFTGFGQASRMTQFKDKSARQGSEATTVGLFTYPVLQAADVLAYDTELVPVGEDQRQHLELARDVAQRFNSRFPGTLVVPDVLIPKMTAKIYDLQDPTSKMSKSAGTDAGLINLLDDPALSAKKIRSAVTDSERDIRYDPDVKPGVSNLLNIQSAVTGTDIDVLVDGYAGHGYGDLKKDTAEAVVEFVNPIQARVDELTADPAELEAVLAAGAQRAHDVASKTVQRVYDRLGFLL
UniProt P9WPC5, whole entry: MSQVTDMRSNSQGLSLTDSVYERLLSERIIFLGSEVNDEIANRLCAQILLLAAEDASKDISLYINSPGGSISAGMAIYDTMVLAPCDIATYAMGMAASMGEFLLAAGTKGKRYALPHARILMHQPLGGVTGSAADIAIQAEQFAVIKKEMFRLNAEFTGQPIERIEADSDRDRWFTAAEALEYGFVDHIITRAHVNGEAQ
UniProt P9WPC3, whole entry partner: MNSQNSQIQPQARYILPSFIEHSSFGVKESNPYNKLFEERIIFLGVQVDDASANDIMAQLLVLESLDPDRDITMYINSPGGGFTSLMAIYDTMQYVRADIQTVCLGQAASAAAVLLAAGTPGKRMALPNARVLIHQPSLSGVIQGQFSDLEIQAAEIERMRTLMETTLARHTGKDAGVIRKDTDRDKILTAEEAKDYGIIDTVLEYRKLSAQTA
UniProt I6X8D2, whole entry: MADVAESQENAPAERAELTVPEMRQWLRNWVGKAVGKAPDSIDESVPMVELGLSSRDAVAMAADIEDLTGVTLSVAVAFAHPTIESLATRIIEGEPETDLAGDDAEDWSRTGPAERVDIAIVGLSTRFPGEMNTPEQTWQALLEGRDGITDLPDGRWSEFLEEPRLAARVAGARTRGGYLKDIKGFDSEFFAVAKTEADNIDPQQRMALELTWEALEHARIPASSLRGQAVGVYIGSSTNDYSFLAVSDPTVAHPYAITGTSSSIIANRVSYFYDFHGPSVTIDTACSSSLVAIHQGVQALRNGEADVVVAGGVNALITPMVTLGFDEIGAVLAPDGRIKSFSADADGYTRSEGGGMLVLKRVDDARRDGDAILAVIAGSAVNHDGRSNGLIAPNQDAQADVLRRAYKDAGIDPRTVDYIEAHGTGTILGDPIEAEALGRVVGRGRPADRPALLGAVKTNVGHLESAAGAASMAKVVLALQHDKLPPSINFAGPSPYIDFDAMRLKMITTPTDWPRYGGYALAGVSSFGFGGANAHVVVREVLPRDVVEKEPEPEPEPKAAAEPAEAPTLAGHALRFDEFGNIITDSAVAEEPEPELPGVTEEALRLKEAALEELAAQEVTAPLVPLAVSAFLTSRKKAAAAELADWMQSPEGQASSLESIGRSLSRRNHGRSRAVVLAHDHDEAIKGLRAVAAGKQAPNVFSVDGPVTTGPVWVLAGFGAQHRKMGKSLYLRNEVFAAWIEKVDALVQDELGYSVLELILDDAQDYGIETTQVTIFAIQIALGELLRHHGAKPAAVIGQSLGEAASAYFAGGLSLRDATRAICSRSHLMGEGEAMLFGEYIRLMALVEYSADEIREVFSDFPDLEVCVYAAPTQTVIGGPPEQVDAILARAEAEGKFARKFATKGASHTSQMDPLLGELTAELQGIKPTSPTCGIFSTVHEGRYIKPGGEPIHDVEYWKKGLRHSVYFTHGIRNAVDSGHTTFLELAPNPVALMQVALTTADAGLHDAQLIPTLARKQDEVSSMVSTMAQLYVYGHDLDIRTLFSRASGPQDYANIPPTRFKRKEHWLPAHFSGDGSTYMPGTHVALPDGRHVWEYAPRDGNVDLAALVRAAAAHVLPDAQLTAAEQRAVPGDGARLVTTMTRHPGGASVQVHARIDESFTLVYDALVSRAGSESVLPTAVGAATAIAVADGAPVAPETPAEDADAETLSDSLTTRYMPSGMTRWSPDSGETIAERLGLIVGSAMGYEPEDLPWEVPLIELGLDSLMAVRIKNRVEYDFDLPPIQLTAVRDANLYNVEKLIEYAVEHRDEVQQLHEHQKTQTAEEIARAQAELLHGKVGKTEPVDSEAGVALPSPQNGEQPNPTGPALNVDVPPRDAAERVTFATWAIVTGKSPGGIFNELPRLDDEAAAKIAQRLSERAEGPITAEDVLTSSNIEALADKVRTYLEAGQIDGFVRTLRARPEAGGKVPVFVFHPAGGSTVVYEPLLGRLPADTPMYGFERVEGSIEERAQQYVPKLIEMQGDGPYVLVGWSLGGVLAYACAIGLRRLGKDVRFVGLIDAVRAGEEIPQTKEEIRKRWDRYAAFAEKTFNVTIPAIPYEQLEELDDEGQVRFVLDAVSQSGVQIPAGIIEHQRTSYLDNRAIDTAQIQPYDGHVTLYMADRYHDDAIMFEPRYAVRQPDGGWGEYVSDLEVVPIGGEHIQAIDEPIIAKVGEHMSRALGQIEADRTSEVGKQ
UniProt Q8IDJ8, 1-583: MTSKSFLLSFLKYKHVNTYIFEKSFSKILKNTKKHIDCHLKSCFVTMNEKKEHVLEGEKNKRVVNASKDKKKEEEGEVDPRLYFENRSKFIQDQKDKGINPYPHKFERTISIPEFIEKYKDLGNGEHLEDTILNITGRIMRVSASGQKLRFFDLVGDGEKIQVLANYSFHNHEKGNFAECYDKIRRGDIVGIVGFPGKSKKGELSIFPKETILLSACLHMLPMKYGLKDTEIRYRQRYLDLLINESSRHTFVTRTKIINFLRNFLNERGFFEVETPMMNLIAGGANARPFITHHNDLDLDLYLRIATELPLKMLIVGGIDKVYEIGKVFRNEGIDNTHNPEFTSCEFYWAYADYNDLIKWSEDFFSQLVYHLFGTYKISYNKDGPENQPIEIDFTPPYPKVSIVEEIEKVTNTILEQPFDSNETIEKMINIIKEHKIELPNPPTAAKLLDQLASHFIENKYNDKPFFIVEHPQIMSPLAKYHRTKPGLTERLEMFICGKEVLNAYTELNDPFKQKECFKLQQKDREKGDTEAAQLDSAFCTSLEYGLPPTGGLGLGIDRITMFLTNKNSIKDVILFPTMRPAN

From ChEMBL document CHEMBL3988442, “University of Dundee, Small-Polar-MMV Screening Library” (2021).

MtTrpRS: 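Enzyme assay of tryptophanyl-tRNA synthetase; the read-out is not stated. Target: Tryptophan-tRNA ligase, Mycobacterium tuberculosis (UniProt P9WFT3). Tested at 10 µM. Direction is not recorded; retested compounds ran higher, which suggests that high means inhibition. About 65,000 compounds were tested under these conditions; 0.098% (about 64) showed 50% or more at least once.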
ClpP1P2: 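Protease assay of ClpP1P2, read by the AMC dye that it sets free. Target: ClpP1P2, Mycobacterium tuberculosis (UniProt P9WPC5 and UniProt P9WPC3). Compounds at 50 µM. Direction is inferred from only a few compounds that gave an IC50; most scored high, so higher reads as stronger inhibition. Most other retested compounds had strongly negative values. Size under these conditions: about 69,000 compounds, about 10 of them at 50% or above in at least one test.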
Pks13 thioesterase: 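Enzyme assay of the thioesterase domain of polyketide synthase 13; the read-out is not stated. Target: Polyketide synthase Pks13, Mycobacterium tuberculosis (UniProt I6X8D2). Tested at 30 µM. The record gives no direction; the compounds picked for IC50 retests had high values, so higher reads as stronger inhibition. Of about 67,000 compounds tested this way, about 300 (0.46%) reached 50% or more in at least one test.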
PfKRS1: 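Lysine-tRNA ligase, Plasmodium falciparum 3D7 (UniProt Q8IDJ8). Enzyme assay of the cytosolic lysyl-tRNA synthetase in 384-well plates, read by luminescence. Compounds at 30 µM. Higher reads as stronger inhibition, judged from the few compounds that gave an IC50. About 69,000 compounds were tested under these conditions; 0.071% (about 49) showed 50% or more at least once.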

Each number is a percent effect as filed.
How 0% and 100% were set is not recorded. Most values in the screen are low, and negative values occur.
This is an unselected part of the compounds tested.
A dash means the value is not listed here; it may have been measured.

structure | MtTrpRS | ClpP1P2 | Pks13 thioesterase | PfKRS1
COc1cccc(-c2ncc(CN3CC[C@H]4CC[C@@H](C3)N4)s2)c1 | -0.3631 | -3.484 | -3.279 | 0.01209
COc1cc(N2CCC3(CCCN(C(=O)c4cnccn4)C3)C2)ncn1 (stereo not given) | -6.281 | 3.789 | -4.416 | 0.03532
Cn1cc(CCC(=O)NC(c2ccc(F)cc2)C(F)(F)F)cn1 (stereo not given) | -1.22 | -0.3443 | -2.54 | 3.793
O=C1CO[C@@H]2CN(S(=O)(=O)c3ccc(F)cc3)C[C@H]2N1 | - | 8.336 | - | 0.9356
Cc1occc1C(=O)N1CCC(C(O)c2ccc(Cl)cc2)CC1 (stereo not given) | -1.111 | -2.169 | -11.05 | 3.19
Cc1ccc(CN2CCn3cc(CN(C)Cc4ccco4)nc3C2)o1 | -8.269 | -9.397 | -5.81 | 3.4
CN(C)C(=O)CN1CCC(c2nnc(Cn3cccn3)n2C2CC2)CC1 | 5.729 | -21.39 | -22.81 | 6.833
Cc1ccsc1C(=O)N1CCc2ncc(CN(C)C)n2CC1 | 0.2453 | -3.528 | -6.308 | 7.665
CS(=O)(=O)N1CCCCCC1C1CCN(c2ncccc2C#N)CC1 (stereo not given) | -2.516 | -80.03 | -5.558 | 0.7155
O=C(Nc1cnccn1)[C@H]1CC[C@@H]2[C@@H](CCN2Cc2ccccn2)O1 | -2.532 | 1.517 | 10.15 | -0.05737
CC(CNC(=O)c1nnn(-c2ccccc2)c1C(F)(F)F)N(C)C (stereo not given) | -1.027 | 1.696 | -15.94 | -1.9
Cc1ccc(NC(=O)NC(C)c2nc[nH]n2)cc1 (stereo not given) | 2.347 | -2.445 | -20.94 | 2.79
O=C(O)c1csc(S(=O)(=O)Nc2c(F)cccc2-n2cccn2)c1 | 0.3621 | -3.194 | -12.26 | 6.084
CC(CNC(=O)c1cccnc1O)Cn1cccn1 (stereo not given) | -2.639 | -4.381 | -27.33 | 3.477
Cc1noc(C(C)N2CCN(c3ccc(C#N)cn3)CC2)n1 (stereo not given) | 4.919 | -5.69 | -3.171 | 1.179
O=C(CSc1ccc(F)c(F)c1)NS(=O)(=O)c1ccc2c(c1)OCCO2 | -0.3712 | 13.67 | -5.058 | 0.7736
COc1ccc(Cl)cc1NCC(=O)NCc1cccnc1OC | -6.498 | -15.09 | 15.73 | 3.629
CCCN(Cc1nccn1C)C(=O)c1cnn[nH]1 | 0.2894 | -30.9 | -88.95 | 4.446
O=C1CO[C@@H]2CN(S(=O)(=O)c3ccccc3F)C[C@H]2N1 | - | -1.346 | 12.87 | 1.731
Cc1ccc(C(=O)N2CCC3(CC2)CC(c2cnn(C)c2)CO3)cn1 (stereo not given) | 1.876 | -15.24 | -6.145 | 2.62
Cn1ccc2c(-c3nccc(N)n3)ccnc21 | -2.558 | -196.4 | 38.8 | -1.54
Cc1ccc(N2CC[C@H]3OCC[C@@]3(C(=O)NCC3CC3)C2)nn1 | 5.089 | 8.599 | -16.84 | 2.954
Cc1nn(C)c(C)c1CN(C)C1CCN(c2ncnc3[nH]cnc23)CC1 | 25.31 | 20.02 | 2.331 | -8.992
Cc1cnc2n(c1=O)CC(C(=O)Nc1ccon1)CS2 (stereo not given) | 2.288 | -4.646 | -3.179 | 9.276
CCc1cc(NC(=O)C2CCCN(C(=O)c3ccncc3)C2)[nH]n1 (stereo not given) | 1.202 | -11.61 | 2.247 | 1.951
Cn1cc(-c2ccnc(NCC3CCCCO3)n2)cn1 (stereo not given) | 11.58 | -19.39 | 13.65 | -4.479
COc1ccc(F)c(CN2CCCC3(CCN(S(C)(=O)=O)C3)C2)c1 (stereo not given) | 1.687 | -11.06 | -29.27 | 4.144
CN1CCN(C(=O)c2ccnc(N3CCOC(C(F)(F)F)C3)c2)CC1 (stereo not given) | 0.3236 | 16.76 | -5.574 | -1.533
O=C(C1=COCCO1)N1CC(Oc2nc3c(Cl)cccc3s2)C1 | 3.417 | -3.25 | -14.74 | 2.025
Cc1nc2ccc(C(=O)N3CCN(CCO)[C@@H]4CS(=O)(=O)C[C@@H]43)cc2o1 | -0.8215 | -4.342 | - | 3.424
COCc1ccccc1C(=O)OCc1noc(C)n1 | -4.088 | -11.29 | 6.944 | -0.9097
Cc1cc(CN2CC[C@H]3C[C@H](C)O[C@@H]3C2)no1 | 0.7846 | -2.452 | -27.64 | 1.292
Cc1cc(N(Cc2ccccn2)C2CC2)n2nc(C(F)(F)F)nc2n1 | 3.804 | -2.919 | -35.06 | 2.888
COc1ccc(CN2C[C@@H]3COC[C@H](N4CCN(C)CC4)[C@@H]3C2)cc1 | 1.137 | -7.298 | 2.372 | 1.963
CN1CCN(C[C@@H]2CN(C(=O)c3ccccc3C#N)C[C@@H]2CO)CC1 | 2.59 | -12.38 | 4.022 | 1.125
O=C1NCCO[C@H]2CN(C(=O)Cc3ccco3)CC[C@@H]12 | 0.08176 | 15.33 | -25.23 | 3.557
O=C(CCn1cccn1)N1CCSCC1 | 0.7741 | -26.85 | -19.11 | -1.223
COCc1noc(Cn2ncn3cccc3c2=O)n1 | 8.826 | 8.371 | -2.343 | 3.677
c1cnnc(N2CCCC2CNCc2csc(-c3ccco3)n2)c1 (stereo not given) | -5.587 | -33.42 | -14.78 | 0.5278
CN1CCC(N(CCc2ccccc2)C(=O)COCC2CCCO2)CC1 (stereo not given) | -0.8043 | -0.0683 | -7.018 | 5.661
Cc1noc(-c2ccc(N3CCN(Cc4nccn4C)CC3)nc2)n1 | -0.4167 | 8.238 | -11.92 | 8.896
Cc1ccc(CN2CCCn3cnc(COCC4CC4)c3C2)o1 | 0.09295 | -7.509 | -31.82 | 7.628
COC(=O)C1CN(Cc2ccn(-c3ccc(F)cc3)n2)C[C@@H](C)O1 (stereo not given in full) | 2.22 | -10.09 | 0.5318 | 5.312
CN(CCCc1ccccc1)C(=O)c1ccccc1NCC(=O)O | -1.098 | -9.704 | -12.44 | 2.574
CCOc1nnc(CN(C)CC2CCCN2c2cccnn2)s1 (stereo not given) | -3.708 | 2.525 | -39.81 | -2.055
N#Cc1cc(F)ccc1CN1CCCC1Cn1cccn1 (stereo not given) | -5.49 | -9.418 | 9.122 | 3.875
COCC1c2c(cnn2C)CCN1Cc1ccc(C)cc1 (stereo not given) | 0.4149 | -6.048 | 3.464 | 2.022
CC1CCC(NCCNC(=O)c2cccs2)CC1 (stereo not given) | -11.92 | -16.9 | 10.98 | 1.793
CC(NC(=O)Nc1cccnc1N1CCOCC1)c1ccccc1 (stereo not given) | -5.922 | 2.414 | -35.05 | 1.504
O=C(Cc1ccccc1F)NCCN1CCOCC1 | 1.583 | -4.513 | -30.27 | -2.654
O=C(Cc1ccc(-c2ccccc2)cc1)N1CCOCC(O)C1 (stereo not given) | -6.622 | -7.611 | -0.5146 | 1.994
O=C(Cc1ccccn1)N1CCc2ncnc(N3CCCC3)c2CC1 | 0.4882 | -14.71 | -1.95 | 3.92
CCOc1ccc(Cl)cc1C1CCCN1 (stereo not given) | 4.555 | 0.901 | -34.14 | 3.842
Cc1cc(C)n(C2CN(Cc3nc4cc(Cl)ccc4n3C)C2)n1 | -0.8043 | -5.077 | -13.54 | 2.41
Fc1ccc(Oc2ccc(CNCC3CNc4ccnn4C3)cn2)cc1 (stereo not given) | -5.355 | -1.015 | 0.3072 | 1.704
CCCN(CCc1ccccn1)C(=O)CCc1cnn(C)c1 | -1.071 | -4.122 | 1.203 | -1.054
CN1CCOC(CNCc2ccccc2OCc2ccccn2)C1 (stereo not given) | -2.032 | -29.67 | -16.01 | 0.2289
Cc1nc(C)n(C2CCCN(C(=O)c3csc(CC(C)C)n3)C2)n1 (stereo not given) | -6.638 | -18.36 | -0.984 | 0.1059
Cc1cc(C(=O)N2C[C@@H]3[C@@H](CN(C)CCc4ccccn4)[C@@H]3C2)c(C)o1 | 5.774 | -7.882 | -20.85 | 2.989
Cc1noc(C)c1CS(=O)(=O)CC(=O)NCCc1cccs1 | 1.5 | 2.882 | -12.25 | 8.116

7 of the entries, repeated:

For CCc1cc(NC(=O)C2CCCN(C(=O)c3ccncc3)C2)[nH]n1 (stereo not given) the result was MtTrpRS: 1.202%; ClpP1P2: -11.61%; Pks13 thioesterase: 2.247%; PfKRS1: 1.951%.
For CC(CNC(=O)c1nnn(-c2ccccc2)c1C(F)(F)F)N(C)C (stereo not given) the result was MtTrpRS: -1.027%; ClpP1P2: 1.696%; Pks13 thioesterase: -15.94%; PfKRS1: -1.9%.
For CN1CCN(C[C@@H]2CN(C(=O)c3ccccc3C#N)C[C@@H]2CO)CC1 the result was MtTrpRS: 2.59%; ClpP1P2: -12.38%; Pks13 thioesterase: 4.022%; PfKRS1: 1.125%.
For Cc1cc(CN2CC[C@H]3C[C@H](C)O[C@@H]3C2)no1 the result was MtTrpRS: 0.7846%; ClpP1P2: -2.452%; Pks13 thioesterase: -27.64%; PfKRS1: 1.292%.
For CCCN(CCc1ccccn1)C(=O)CCc1cnn(C)c1 the result was MtTrpRS: -1.071%; ClpP1P2: -4.122%; Pks13 thioesterase: 1.203%; PfKRS1: -1.054%.
For O=C(CSc1ccc(F)c(F)c1)NS(=O)(=O)c1ccc2c(c1)OCCO2 the result was MtTrpRS: -0.3712%; ClpP1P2: 13.67%; Pks13 thioesterase: -5.058%; PfKRS1: 0.7736%.
For COC(=O)C1CN(Cc2ccn(-c3ccc(F)cc3)n2)C[C@@H](C)O1 (stereo not given in full) the result was MtTrpRS: 2.22%; ClpP1P2: -10.09%; Pks13 thioesterase: 0.5318%; PfKRS1: 5.312%.